Measurements as given in paper PMC6009676.
Results are given in words; binding and its absence hold for the method and conditions named. In cells and extracts the contact can be indirect. Some binding calls cover weakened binding; strength is not graded here.

By UniProt entry, the sequences of proteins in these tests, tags left out. Where a name states a change or a piece, a line headed by the entry shows the natural chain unless it says otherwise. Chains listed by the source or under a name are the forms on record and can include a tag or linker. Residues count along the entry.
UniProt Q9NUW8: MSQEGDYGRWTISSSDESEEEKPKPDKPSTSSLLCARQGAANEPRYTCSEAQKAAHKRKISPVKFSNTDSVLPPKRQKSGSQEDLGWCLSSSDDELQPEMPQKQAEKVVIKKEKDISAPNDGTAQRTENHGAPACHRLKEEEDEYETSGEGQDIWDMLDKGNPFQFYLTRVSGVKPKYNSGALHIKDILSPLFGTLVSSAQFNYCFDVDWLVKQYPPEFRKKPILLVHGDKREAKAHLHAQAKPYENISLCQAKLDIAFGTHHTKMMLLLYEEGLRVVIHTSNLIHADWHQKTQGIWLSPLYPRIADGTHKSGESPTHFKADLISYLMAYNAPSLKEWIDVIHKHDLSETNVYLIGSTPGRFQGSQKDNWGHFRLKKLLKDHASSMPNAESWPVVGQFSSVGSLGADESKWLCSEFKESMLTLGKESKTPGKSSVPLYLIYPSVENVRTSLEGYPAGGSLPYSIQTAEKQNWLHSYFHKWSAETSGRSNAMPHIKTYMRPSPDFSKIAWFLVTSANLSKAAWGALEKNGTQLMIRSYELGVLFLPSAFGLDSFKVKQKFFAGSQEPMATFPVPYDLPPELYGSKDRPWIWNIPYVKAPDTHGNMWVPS
GFP-tagged N-terminal domain of TDP1 (1-185 aa): residues 1-185 of Q9NUW8
GFP-tagged C-terminal (catalytic) domain of TDP1 (185-608 aa): residues 185-608 of Q9NUW8
UniProt O14744: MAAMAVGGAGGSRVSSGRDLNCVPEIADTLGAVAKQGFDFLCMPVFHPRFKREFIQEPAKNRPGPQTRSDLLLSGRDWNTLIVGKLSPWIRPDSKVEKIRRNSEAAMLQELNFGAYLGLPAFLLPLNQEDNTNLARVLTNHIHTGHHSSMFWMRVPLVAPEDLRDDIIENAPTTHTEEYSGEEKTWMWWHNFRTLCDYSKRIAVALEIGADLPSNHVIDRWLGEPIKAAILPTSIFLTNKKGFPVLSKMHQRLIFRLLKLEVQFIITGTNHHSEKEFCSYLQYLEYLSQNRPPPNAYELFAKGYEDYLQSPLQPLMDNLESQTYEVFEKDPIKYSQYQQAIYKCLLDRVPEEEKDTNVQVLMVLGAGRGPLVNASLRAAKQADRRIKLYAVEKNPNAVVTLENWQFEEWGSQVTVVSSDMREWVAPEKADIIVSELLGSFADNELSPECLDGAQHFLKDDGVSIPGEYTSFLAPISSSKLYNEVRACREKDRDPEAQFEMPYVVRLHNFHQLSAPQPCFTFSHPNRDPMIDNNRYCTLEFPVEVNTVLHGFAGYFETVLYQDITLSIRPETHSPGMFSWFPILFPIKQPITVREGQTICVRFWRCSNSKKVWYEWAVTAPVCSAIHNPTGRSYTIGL
Flag-tagged N-terminal domain of PRMT5 (1-293 aa): residues 1-293 of O14744
Flag-tagged C-terminal domain of PRMT5 (294-637 aa): residues 294-637 of O14744

Assays:
[1] = molecular target: GFP-tagged N-terminal domain of TDP1 (1-185 aa) (human) (UniProt Q9NUW8); experiment: co-IP; GFP-TDP1 variants expressed in HCT116, immunoprecipitated with anti-GFP antibody, cells with or without CPT (5 uM, 3 h), control siRNA where siRNA was used; lysis buffer 50 mM Tris-HCl pH 7.4, 300 mM NaCl, 0.4% NP40; overnight at 4°C; immunoblot of the endogenous partner
[2] = molecular target: GFP-tagged C-terminal (catalytic) domain of TDP1 (185-608 aa) (human) (UniProt Q9NUW8); experiment: as above
[3] = molecular target: GFP-tagged full-length human TDP1 (GFP-TDP1^WT) (human) (UniProt Q9NUW8); experiment: as above
[4] = molecular target: GFP-TDP1^KK (R361K, R586K methylation mutant) (human) (UniProt Q9NUW8); experiment: as above
[5] = molecular target: Tyrosyl-DNA phosphodiesterase 1 (endogenous TDP1) (human (endogenous in HCT116)) (UniProt Q9NUW8); experiment: co-IP; endogenous TDP1 immunoprecipitated with anti-TDP1 antibody from HCT116 lysate, cells with or without CPT (5 uM, 3 h); lysis buffer 50 mM Tris-HCl pH 7.4, 300 mM NaCl, 0.4% NP40, 10 mM MgCl2, 0.5 mM DTT; overnight at 4°C; immunoblot
[6] = molecular target: Human flag-tagged full-length TDP1 (FLAG-TDP1^WT) (human) (UniProt Q9NUW8); experiment: co-IP; FLAG-tagged bait (FLAG-PRMT5 constructs or FLAG-TDP1 variants) expressed in HCT116, immunoprecipitated with anti-FLAG antibody, cells with or without CPT (5 uM, 3 h); lysis buffer 50 mM Tris-HCl pH 7.4, 300 mM NaCl, 0.4% NP40; overnight at 4°C; immunoblot of the endogenous partner
[7] = molecular target: GFP-tagged full-length human TDP1 (GFP-TDP1^WT) (human) (UniProt Q9NUW8); experiment: co-IP; GFP-TDP1 expressed in HCT116, cell lysates pretreated with benzonase nuclease prior to anti-GFP co-IP; immunoblot with anti-PRMT5
[8] = molecular target: Flag-tagged N-terminal domain of PRMT5 (1-293 aa) (human) (UniProt O14744); experiment: co-IP; FLAG-tagged bait (FLAG-PRMT5 constructs or FLAG-TDP1 variants) expressed in HCT116, immunoprecipitated with anti-FLAG antibody, cells with or without CPT (5 uM, 3 h); lysis buffer 50 mM Tris-HCl pH 7.4, 300 mM NaCl, 0.4% NP40; overnight at 4°C; immunoblot of the endogenous partner
[9] = molecular target: FLAG-PRMT5 full length (1-637 aa) (human) (UniProt O14744); experiment: as above
[10] = molecular target: Flag-tagged C-terminal domain of PRMT5 (294-637 aa) (human) (UniProt O14744); experiment: as above

binding [1] | binding [2] | binding [3] | binding [4] | binding [5] | binding [6] | binding [7] | binding [8] | binding [9] | binding [10] | Substance
binds | binds weakly | binds | binds | binds | binds | binds |  |  |  | Protein arginine methyltransferase PRMT5 (endogenous) (from UniProt O14744 1-637)
 |  |  |  |  |  |  | binds | binds | binds weakly | Tyrosyl-DNA phosphodiesterase 1 (endogenous TDP1) (from UniProt Q9NUW8 1-608)
